## Results of single-concentration screens

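Whole-parasite assay of Trypanosoma brucei over 72 hours; the read-out is not stated. Concentration: 30 µM. Higher reads as stronger inhibition (inferred: compounds with an IC50 in retests scored well above the rest). Values scatter widely below zero; nearly all retest evidence comes from the higher of the two concentrations used. About 64,000 compounds were tested under these conditions; 1.5% (about 940) showed 50% or more at least once.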

Results are given as percent effect.
How 0% and 100% were set is not recorded. Most values in the screen are low, and negative values occur.
This is an unselected part of the compounds tested.

With Cc1cnc(C(=O)N2CC(=O)N(c3ccccc3Cl)CC2C)cn1 (stereo not given) the screen gave -92.79%.
With [H][C@@]12COC[C@]1([H])[C@H](OCc1csc(C)n1)CN2Cc1ccc(F)cc1 the screen gave -12.07%.
With Cc1ccc2c(C(=O)N(C)C)cc(-c3cnn(CCO)c3)nc2c1C the screen gave 10.08%.
With COc1cccc(N2Cc3nc(=O)n(Cc4cccc(F)c4)n3C2=O)c1 the screen gave -6.785%.
With Cc1ccc(-c2nc(CCNC(=O)C3CC(=O)N(C)C3)cs2)cc1 (stereo not given) the screen gave -22.14%.
With CC(C)N(CC(N)=O)Cc1cccc(C(F)(F)F)c1 the screen gave -9.602%.
With O=C(c1ncoc1-c1ccco1)N(Cc1ccco1)CC1CCCO1 (stereo not given) the screen gave -54.86%.
With COc1cc(CNC2CCCN(c3cccnn3)C2)cc2c1OCO2 (stereo not given) the screen gave -37.79%.
With COc1ccc(C2SC(C)=Nc3c2c(=O)[nH]n3C2CCCC2)cc1O (stereo not given) the screen gave 2.19%.
With O=C1CN(C(=O)CC2C(=O)NCCN2CC2CCCCC2)CCN1 (stereo not given) the screen gave -41.91%.
With O=C(Nc1cc(C(F)(F)F)c[nH]c1=O)c1ccco1 the screen gave -6.528%.
With O=C(O)C(F)(F)F.c1ncn(Cc2cn3c(n2)CN(CC2CCCC2)CC3)n1 the screen gave -114.3%.
With [H][C@@]12CCN(Cc3cnn(C)c3)C[C@@]1([H])O[C@@H](c1nc(C3CC3)cs1)C2 the screen gave 4.684%.
With Cc1nc(NCc2ccc(C)o2)cc(C2CCNCC2)n1 the screen gave -21.49%.
With CC(NC(=O)N1CCNC(=O)CC1)c1ccc(C(F)(F)F)cc1 (stereo not given) the screen gave -29.84%.
With CCc1ccsc1C(=O)N(C)CCc1ccncc1 the screen gave 0.7827%.
With CC(C)=CCC1(C(=O)O)CCCN(c2cc(N)ncn2)C1 (stereo not given) the screen gave -17.77%.
With Cc1cccc(CN2C(=O)CCC23CCN(c2ncc(F)cn2)CC3)n1.O=C(O)C(F)(F)F the screen gave 6.517%.
With CN1CC[C@]2(CN(CC3CC3)C[C@H]2c2ccccc2)C1=O the screen gave -23%.
With CC1c2ncc(Cn3cccn3)n2CCN1Cc1ccc(F)cc1.O=C(O)C(F)(F)F (stereo not given) the screen gave 6.386%.
With [H][C@]12CC[C@]([H])(CN(Cc3[nH]cnc3C)C1)N(C(=O)CCc1cnn(C)c1)C2 the screen gave -4.681%.
With O=C1CCC2(CCCN(C(=O)Cc3ccccc3)C2)N1 (stereo not given) the screen gave -10.34%.
With CC(C)[C@H](N)C(=O)N1CCCC(C2=Nc3ccccc3S(=O)(=O)N2)C1.Cl (stereo not given in full) the screen gave 8.609%.
With Cc1nc(C2(NCC(=O)NCCc3cccs3)CCCC2)no1 the screen gave 17.06%.
With Cc1nn(C)c(C)c1C1CCCN1C(=O)c1ccc2c(c1)OCCO2 (stereo not given) the screen gave 1.563%.
With Cc1cc(C)n(CC2CN(Cc3ccc(C(N)=O)cc3)CCO2)n1 (stereo not given) the screen gave -8.175%.
With Cc1ccc(=O)n(Cc2nc(C(C)OCC(C)C)no2)n1 (stereo not given) the screen gave -83.88%.
With CC(=O)NCc1ccc(C(=O)N2CCCC2c2cnn(C)c2)o1 (stereo not given) the screen gave 1.117%.
With CCC[C@@H]1CN(Cc2nnc(-c3cccnc3)o2)C[C@H]1NC(C)=O the screen gave 9.568%.
With CC(C)c1cc(N2CCC(CCC(=O)NC3CC3)CC2)n2nccc2n1 the screen gave 33.08%.
With Cc1csc(C(=O)N2CCCC(c3[nH]ncc3S(C)(=O)=O)C2)c1 (stereo not given) the screen gave 68.17%.
With Cc1cccc(-c2noc([C@@H]3C[C@@H](O)CN3CC3CCCCC3)n2)c1 the screen gave 18.13%.
With Cc1cc(N(C)CCC(O)c2ccccc2)n2nccc2n1 (stereo not given) the screen gave 42.39%.
With COCC(c1cccc(C(F)(F)F)c1)N(C)C(=O)c1cnccn1 (stereo not given) the screen gave 6.325%.
With O=C(O)C(F)(F)F.[H][C@@]12COC[C@]1(CNC(=O)CC1CC1)CN(c1ncccn1)C2 the screen gave -15.52%.
With Cc1ccc(C(=O)NCCNC(=O)N(C)C(C)c2ccccn2)cc1 (stereo not given) the screen gave -26.14%.
With Nc1cc(-c2cccc3c2CCNC3)ncn1 the screen gave 13.74%.
With CC(NC(=O)Nc1ccc(-c2csnn2)cc1)C(=O)NC(C)(C)C (stereo not given) the screen gave -56.1%.
With Cc1cn2c(n1)CCC(NC(=O)Cn1cncn1)C2 (stereo not given) the screen gave -22.09%.
With Cc1cccc(CN2CCC3(CCCN(C(=O)N4CCCC4)C3)C2=O)n1.O=C(O)C(F)(F)F (stereo not given) the screen gave -96.29%.
With Cc1nnc(SCc2ccccn2)s1 the screen gave -3.203%.
With Cc1ccc(C(=O)NCC2COCCO2)c(=O)[nH]1 (stereo not given) the screen gave -10.77%.
With c1coc(CN2CCn3c(nc4ccccc43)C2)c1 the screen gave -73%.
With CC(CNS(C)(=O)=O)c1ccc(F)c(F)c1 (stereo not given) the screen gave -42.85%.
With Cc1cc(C(=O)N2CCc3nnc(N)cc3C2)c(C)n1-c1cccnc1 the screen gave 22.46%.
With CN1CCC(N(C)CCC(=O)N2CCC(OCc3ccccc3)CC2)C1 (stereo not given) the screen gave -101%.
With COc1cccc(CNC2CCCOc3cc(C)ccc32)n1 (stereo not given) the screen gave -17.07%.
With COc1ccccc1CCN1CCCC(CN(C)Cc2cc(C)n[nH]2)C1 (stereo not given) the screen gave 8.741%.
With COCCNc1nc(-c2ccc(S(=O)(=O)N3CCCCC3)cc2)cs1 the screen gave 8.375%.
With COC(=O)c1c(Cl)c(C2CC2)nc2onc(C)c12 the screen gave -57.65%.
With [H][C@@]12CN(Cc3ccc(Oc4ccccc4)cc3)C[C@]1(C(=O)O)CNC2=O the screen gave 7.57%.
With O=C(CSc1nnc[nH]1)NCc1cccs1 the screen gave -58.42%.
With COc1cc(OC)cc(N2CCC(NCc3ccsc3)C2=O)c1 (stereo not given) the screen gave -49.97%.
With CSc1ccc(NCc2csc(C)n2)cc1F the screen gave -33.14%.
With Cn1nccc1CN1CCOC(c2cccc(Nc3ccccn3)n2)C1 (stereo not given) the screen gave 100.5%.

Once more, the final 7:

compound,Percent Effect
COCCNc1nc(-c2ccc(S(=O)(=O)N3CCCCC3)cc2)cs1,8.375
COC(=O)c1c(Cl)c(C2CC2)nc2onc(C)c12,-57.65
[H][C@@]12CN(Cc3ccc(Oc4ccccc4)cc3)C[C@]1(C(=O)O)CNC2=O,7.57
O=C(CSc1nnc[nH]1)NCc1cccs1,-58.42
COc1cc(OC)cc(N2CCC(NCc3ccsc3)C2=O)c1 (stereo not given),-49.97
CSc1ccc(NCc2csc(C)n2)cc1F,-33.14
Cn1nccc1CN1CCOC(c2cccc(Nc3ccccn3)n2)C1 (stereo not given),100.5

Measurements from “University of Dundee, Small-Polar-MMV Screening Library” (2021), ChEMBL document CHEMBL3988442.